Here are results for two molecules from PMC3734102.

In assay [1] the target is T1, Cdc27p-9myc (S. cerevisiae) (UniProt P38042).
T1 sequence: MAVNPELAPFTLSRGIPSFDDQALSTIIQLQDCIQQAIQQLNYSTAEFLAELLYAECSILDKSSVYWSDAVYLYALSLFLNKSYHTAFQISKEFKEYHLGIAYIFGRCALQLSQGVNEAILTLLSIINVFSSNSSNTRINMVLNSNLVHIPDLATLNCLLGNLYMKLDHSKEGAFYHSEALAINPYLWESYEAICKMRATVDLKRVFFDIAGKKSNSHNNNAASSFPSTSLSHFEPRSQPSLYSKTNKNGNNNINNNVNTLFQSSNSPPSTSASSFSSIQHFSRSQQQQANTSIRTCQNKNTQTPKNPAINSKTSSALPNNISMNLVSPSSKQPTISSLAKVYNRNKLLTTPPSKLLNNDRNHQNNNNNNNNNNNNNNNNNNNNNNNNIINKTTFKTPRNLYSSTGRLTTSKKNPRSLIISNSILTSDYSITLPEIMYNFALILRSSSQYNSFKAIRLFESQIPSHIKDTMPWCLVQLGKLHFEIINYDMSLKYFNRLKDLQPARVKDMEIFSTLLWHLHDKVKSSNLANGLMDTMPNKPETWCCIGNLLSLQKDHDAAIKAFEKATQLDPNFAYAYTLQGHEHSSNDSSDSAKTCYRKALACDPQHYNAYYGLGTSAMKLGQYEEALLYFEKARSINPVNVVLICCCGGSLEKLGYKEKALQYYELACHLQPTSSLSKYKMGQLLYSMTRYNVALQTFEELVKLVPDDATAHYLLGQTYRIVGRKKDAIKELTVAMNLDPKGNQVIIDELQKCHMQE
The assay can be described thus: co-IP; Cdc27-9myc strain RSY1337 with GST or GST-Ama1p fusion plasmids, grown in raffinose/galactose medium to induce the fusion genes; 1 mg soluble protein; immunoprecipitation and immunoblot, with a no-antibody mock immunoprecipitation. (Immunoblotting shows a protein as a band on a membrane.)

Assay [2] has as its target T1, Cdc27p-9myc (S. cerevisiae). The experiment in a line: co-IP; Cdc27-9myc strain KCY328 with Ama1p-T7 plasmids, cells harvested 12 h after transfer to sporulation medium (meiosis); 1 mg soluble protein; immunoprecipitation and immunoblot; which protein was precipitated is not told.

These are yes or no findings as the source states them, for the method shown. Binding seen in cells or lysates may run through a third protein. Some results given as binding are weak or reduced against the parent protein; the word gives no strength. Where a sequence is shown, tags or fusion partners need not be part of it.

B1: GST-Ama1p^1-200 (domain or fragment, UniProt P50082 1-200)
chain: MATPHLYHRYNSKSSNKNINSSGNSTEVDRFIPKSVSRNAYKSIPMLNGFDISYSELCEKSPSPERLSSPEFFNELRNTGHYESISTTNEFSMSSISSSSESQVTRSGSARASRNDYSKLTKEQKDHRKNIAHSLGFQLPDRVFTFETTSAEILEKNKAIKNCFGPGSCAEIRSTFDFSTLSPDVARYYIANSNARSASP
Consider B1, for which, in assay [1], the binding result was “binds”.

B2: Ama1p-T7 (protein, UniProt P50082 1-593)
chain: MATPHLYHRYNSKSSNKNINSSGNSTEVDRFIPKSVSRNAYKSIPMLNGFDISYSELCEKSPSPERLSSPEFFNELRNTGHYESISTTNEFSMSSISSSSESQVTRSGSARASRNDYSKLTKEQKDHRKNIAHSLGFQLPDRVFTFETTSAEILEKNKAIKNCFGPGSCAEIRSTFDFSTLSPDVARYYIANSNARSASPQRQIQRPAKRVKSHIPYRVLDAPCLRNDFYSNLISWSRTTNNVLVGLGCSVYIWSEKEGAVSILDHQYLSEKRDLVTCVSFCPYNTYFIVGTKFGRILLYDQKEFFHSSNTNEKEPVFVFQTESFKGICCLEWFKPGEICKFYVGEENGNVSLFEIKSLHFPIKNWSKRQKLEDENLIGLKLHSTYQAQAQQVCGISLNEHANLLAVGGNDNSCSLWDISDLDKPIKKFVLPHKAAVKAIAFCPWSKSLLATGGGSKDRCIKFWHTSTGTLLDEICTSGQVTSLIWSLRHKQIVATFGFGDTKNPVLITLYSYPKLSKLLEVRSPNPLRVLSAVISPSSMAICVATNDETIRFYELWNDKEEIINEIQESGIYGSNIIEYMEGIETTHNKRIR
Turning to B2, the binding result in assay [2] is reported as “binds”.
